{
  "source": "PubChem BioAssay AID445",
  "about": "(National Center for Advancing Translational Sciences (NCATS), 2006)",
  "experiment": "IkB Signaling",
  "conditions": "ABC-DLBCL IkBa-CBG/CBR dual luciferase ratio (green luciferase fused to IkBa over red control in OCI-Ly3 lymphoma cells), 4 h",
  "procedure,_shortened": "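Luminescence ratio of IκBα-fused green versus native red beetle luciferase in OCI-Ly3 cells, 4 h post-doxycycline with compound; red signal alone, scaled from basal (0%) to zero light (-100%), flagged nonspecific or cytotoxic effects.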",
  "key": {"[1]": {"conditions": "measured here: control luc red channel unless noted"}},
  "note": "The other results are listed elsewhere or left out. These are further read-outs of the screen, such as a control signal, another cell line or another target. No call is given for them. Compounds called inactive in the main read-out are mostly missing here. Potencies come from curve fits of mixed quality, noted in brackets.",
  "data": [
    {"smiles": "O=C(c1cccs1)N1CCCC(c2nc(-c3ccc(F)cc3)no2)C1", "note": "(stereo not given)", "values": [
      {"measurement": "AC50", "setting": "[1]", "result": "7.94 µM [rising, single point] [measured here: IkB-luc green channel]"}
    ]},
    {"smiles": "Cn1ccc2cc(S(=O)(=O)N3CCCC(C(=O)NCc4ccc(F)cc4)C3)ccc21", "note": "(stereo not given)", "values": [
      {"measurement": "AC50", "setting": "[1]", "result": "2.51 µM [falling, full curve]"}
    ]},
    {"smiles": "Cc1ccc(-c2noc(C3CCCN(C(=O)c4c(F)cccc4F)C3)n2)cc1", "note": "(stereo not given)", "values": [
      {"measurement": "AC50", "setting": "[1]", "result": "15.8 µM [falling, partial curve]"}
    ]},
    {"smiles": "COC(=O)c1ccc(C2C=C(c3ccc(Cl)cc3)Nc3nc4ccccc4n32)cc1", "note": "(stereo not given)", "values": [
      {"measurement": "AC50", "setting": "[1]", "result": "12.6 µM [falling, partial curve]"}
    ]},
    {"smiles": "CCOc1ccccc1-c1noc(CCCC(=O)Nc2cccc(C(F)(F)F)c2)n1", "values": [
      {"measurement": "AC50", "setting": "[1]", "result": "20 µM [falling, partial curve]"}
    ]},
    {"smiles": "O=C(CSc1nc(-c2ccc(F)cc2)nc2c1Cc1ccccc1O2)Nc1cccc(C(=O)O)c1", "values": [
      {"measurement": "AC50", "setting": "[1]", "result": "15.8 µM [falling, single point]"}
    ]},
    {"smiles": "Cc1ccc2c(c1)c(=O)c(C(=O)c1ccccc1)cn2Cc1ccccc1F", "values": [
      {"measurement": "AC50", "setting": "[1]", "result": "25.1 µM [falling, single point]"}
    ]},
    {"smiles": "COc1ccc(NC(=O)CC2C(=O)N(c3ccccc3)C(=O)N2CCC2=CCCCC2)cc1", "note": "(stereo not given)", "values": [
      {"measurement": "AC50", "setting": "[1]", "result": "25.1 µM [falling, partial curve]"}
    ]},
    {"smiles": "CCN1C(=O)c2ccccc2S(=O)c2ccc(C(=O)NCc3ccc(C)cc3)cc21", "note": "(stereo not given)", "values": [
      {"measurement": "AC50", "setting": "[1]", "result": "25.1 µM [falling, single point]"}
    ]},
    {"smiles": "COc1ccc(S(=O)(=O)N(CC(=O)Nc2ccc(OC)cc2OC)c2ccc(Cl)cc2)cc1", "values": [
      {"measurement": "AC50", "setting": "[1]", "result": "15.8 µM [falling, partial curve]"}
    ]},
    {"smiles": "CCOC(=O)C(C(=O)OCC)C1N=C(N)N=C2Oc3ccccc3N21", "note": "(stereo not given)", "values": [
      {"measurement": "AC50", "setting": "[1]", "result": "0.0126 µM [falling, full curve]"}
    ]},
    {"smiles": "COc1ccc(-c2nc(SCC(=O)c3ccc(Br)cc3)n[nH]2)cc1", "values": [
      {"measurement": "AC50", "setting": "[1]", "result": "3.98 µM [rising, full curve]"}
    ]},
    {"smiles": "COc1ccc(/C=C(/C#N)c2nc(-c3cc4ccccc4oc3=O)cs2)cc1", "values": [
      {"measurement": "AC50", "setting": "[1]", "result": "0.794 µM [rising, full curve]"}
    ]},
    {"smiles": "CCC1CN(C(=O)Nc2ccccc2C(F)(F)F)c2ccccc2O1", "note": "(stereo not given)", "values": [
      {"measurement": "AC50", "setting": "[1]", "result": "15.8 µM [falling, partial curve]"}
    ]},
    {"smiles": "Cc1cccc(N2CC(c3nc4ccc(C)cc4[nH]3)CC2=O)c1", "note": "(stereo not given)", "values": [
      {"measurement": "AC50", "setting": "[1]", "result": "31.6 µM [falling, single point]"}
    ]},
    {"smiles": "COc1ccccc1C(=O)Nc1c(C(=O)N2CCN(c3ccc(F)cc3)CC2)oc2ccccc12", "values": [
      {"measurement": "AC50", "setting": "[1]", "result": "25.1 µM [falling, single point]"}
    ]},
    {"smiles": "COc1ccc(NC(=O)C2CCCN(C(=O)c3cnn(-c4ccccc4)c3-n3cccc3)C2)cc1", "note": "(stereo not given)", "values": [
      {"measurement": "AC50", "setting": "[1]", "result": "12.6 µM [falling, single point]"}
    ]},
    {"smiles": "Cc1ccc(-n2nc3cc(C)c(NC(=O)COc4ccccc4)cc3n2)cc1", "values": [
      {"measurement": "AC50", "setting": "[1]", "result": "0.2 µM [rising, full curve, poor fit]"}
    ]},
    {"smiles": "O=C(NCC(c1cccnc1)N1CCc2ccccc21)c1ccc(F)c(F)c1", "note": "(stereo not given)", "values": [
      {"measurement": "AC50", "setting": "[1]", "result": "20 µM [falling, single point]"}
    ]},
    {"smiles": "Cc1cnn(-c2nc(-c3cccs3)cc(C(F)(F)F)n2)c1", "values": [
      {"measurement": "AC50", "setting": "[1]", "result": "31.6 µM [falling, single point]"}
    ]},
    {"smiles": "Cc1cccc(C(=O)Nc2cccc(OCc3cc(=O)n4cc(C)sc4n3)c2)c1", "values": [
      {"measurement": "AC50", "setting": "[1]", "result": "1.58 µM [falling, full curve]"}
    ]},
    {"smiles": "Cc1ccc(C(C)C)c(OCC(=O)NCC2(N3CCOCC3)CCCCC2)c1", "values": [
      {"measurement": "AC50", "setting": "[1]", "result": "31.6 µM [falling, single point]"}
    ]},
    {"smiles": "Cc1ccc(-n2cc3c(c2-c2ccccc2Br)c(=O)n(C)c(=O)n3C)cc1N", "values": [
      {"measurement": "AC50", "setting": "[1]", "result": "39.8 µM [falling, single point]"}
    ]},
    {"smiles": "O=c1c2ccccc2n(Cc2ccccc2Cl)c(=O)n1CCc1ccccc1", "values": [
      {"measurement": "AC50", "setting": "[1]", "result": "0.794 µM [falling, partial curve, poor fit]"}
    ]},
    {"smiles": "CCCCCOc1ccc(Cn2c(=O)oc3ccccc32)cc1", "values": [
      {"measurement": "AC50", "setting": "[1]", "result": "3.16 µM [falling, full curve, poor fit]"}
    ]},
    {"smiles": "CC(C)(C)OC(=O)N1CCC(c2c(C(=O)NC3CCN(Cc4ccccc4)CC3)cnn2-c2ccc(F)cc2F)CC1", "values": [
      {"measurement": "AC50", "setting": "[1]", "result": "12.6 µM [falling, partial curve]"}
    ]},
    {"smiles": "Cc1ccc(NC(=O)C2CCCN(S(=O)(=O)c3ccc4c(c3)oc(=O)n4C)C2)cc1Cl", "note": "(stereo not given)", "values": [
      {"measurement": "AC50", "setting": "[1]", "result": "5.01 µM [falling, partial curve]"}
    ]},
    {"smiles": "Cc1ccc(-c2noc(CCC(=O)N3CCCc4ccccc43)n2)cc1", "values": [
      {"measurement": "AC50", "setting": "[1]", "result": "12.6 µM [falling, partial curve]"}
    ]},
    {"smiles": "COc1ccc(NC(=O)c2c(NCc3sccc3C)sc3c2CCCC3)c(OC)c1", "values": [
      {"measurement": "AC50", "setting": "[1]", "result": "20 µM [falling, partial curve]"}
    ]},
    {"smiles": "CCCOc1ccc(CN(C(=O)Cc2coc3ccc(CC)cc23)C2CCS(=O)(=O)C2)cc1", "note": "(stereo not given)", "values": [
      {"measurement": "AC50", "setting": "[1]", "result": "31.6 µM [falling, single point]"}
    ]},
    {"smiles": "O=S(=O)(Nc1nnc(-c2ccccc2)s1)c1ccc(Cl)cc1", "values": [
      {"measurement": "AC50", "setting": "[1]", "result": "7.94 µM [falling, partial curve]"}
    ]},
    {"smiles": "Cc1ccc(NC(=O)CN2CCN(S(=O)(=O)c3ccc(C(C)C)cc3)CC2)cc1F", "values": [
      {"measurement": "AC50", "setting": "[1]", "result": "5.01 µM [falling, partial curve]"}
    ]},
    {"smiles": "CCC1=Nc2cc(C(=O)NC3CCC(C)CC3)ccc2Sc2ccc(C)cc21", "note": "(stereo not given)", "values": [
      {"measurement": "AC50", "setting": "measured here: IkB-luc green channel", "result": "1.58 µM [rising, full curve]"},
      {"measurement": "AC50", "setting": "measured here: control luc red channel", "result": "0.794 µM [rising, full curve, poor fit]"}
    ]},
    {"smiles": "CCC1CN(C(=O)N2CCC(C(=O)NCc3cccc(OC)c3OC)CC2)c2cc(C)ccc2O1", "note": "(stereo not given)", "values": [
      {"measurement": "AC50", "setting": "[1]", "result": "3.16 µM [falling, partial curve]"}
    ]},
    {"smiles": "CC(C)c1ccc(NC(=O)c2ccc(F)c(S(=O)(=O)N3CCc4ccccc43)c2)cc1", "values": [
      {"measurement": "AC50", "setting": "[1]", "result": "15.8 µM [falling, partial curve]"}
    ]},
    {"smiles": "O=C(CSc1ncnc2ccccc12)Nc1ccc2c(c1)OCO2", "values": [
      {"measurement": "AC50", "setting": "[1]", "result": "12.6 µM [falling, partial curve]"}
    ]},
    {"smiles": "COc1ccccc1NC(=O)c1sc2nc(C)c(C(=O)Nc3ccc(C)cc3C)c(-c3ccco3)c2c1N", "values": [
      {"measurement": "AC50", "setting": "[1]", "result": "3.16 µM [falling, full curve]"}
    ]},
    {"smiles": "O=C(C1CCCN(S(=O)(=O)c2cccc3nsnc23)C1)N1CCN(c2ccccc2F)CC1", "note": "(stereo not given)", "values": [
      {"measurement": "AC50", "setting": "[1]", "result": "25.1 µM [falling, partial curve]"}
    ]},
    {"smiles": "CCC(C)NC(=O)CSc1nc2n[nH]c(C)c2c(=N)n1-c1cc(Cl)ccc1C", "note": "(stereo not given)", "values": [
      {"measurement": "AC50", "setting": "[1]", "result": "39.8 µM [falling, single point]"}
    ]}
  ]
}
